Experimental data taken from patent US20190389841A1, “COMPOUNDS FOR TREATMENT OF TRIPLE NEGATIVE BREAST CANCER AND OVARIAN CANCER” (UNIVERSITY OF TENNESSEE RESEARCH FOUNDATION, priority 2018, published 2019).
Some of these results come from one statement about several compounds together.

System: caspase 3/7 activity in MDA-MB-231 and MDA-MB-468 cells
Experiment: Caspase Glo 3/7 activity assay
Format: cell-based, human

COc1cc2c(c(OC)c1OC)-c1ccc(OC)c(=O)cc1[C@@H](NC(C)=O)CC2 [colchicine]
caspase 3/7 activity versus control group: up to 4 fold
